# Test results reported in the supplement of paper PMC12819154, “High-throughput peptide-centric local stability assay extends protein–ligand identification to membrane proteins, tissues and bacteria” (Nature Structural & Molecular Biology, 2025).
# Amino acid sequences for entries named in this document (tags omitted). A change or cut given only in a name is not applied to a line headed by its entry.
# UniProt O89051: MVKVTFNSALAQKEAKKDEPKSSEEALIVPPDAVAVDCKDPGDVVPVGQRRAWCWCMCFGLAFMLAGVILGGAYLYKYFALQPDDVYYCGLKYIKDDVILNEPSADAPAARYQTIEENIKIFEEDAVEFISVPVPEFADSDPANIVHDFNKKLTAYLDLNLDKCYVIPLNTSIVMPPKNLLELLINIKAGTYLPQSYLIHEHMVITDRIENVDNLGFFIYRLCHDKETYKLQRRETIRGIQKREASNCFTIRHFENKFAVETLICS
# UniProt O89026: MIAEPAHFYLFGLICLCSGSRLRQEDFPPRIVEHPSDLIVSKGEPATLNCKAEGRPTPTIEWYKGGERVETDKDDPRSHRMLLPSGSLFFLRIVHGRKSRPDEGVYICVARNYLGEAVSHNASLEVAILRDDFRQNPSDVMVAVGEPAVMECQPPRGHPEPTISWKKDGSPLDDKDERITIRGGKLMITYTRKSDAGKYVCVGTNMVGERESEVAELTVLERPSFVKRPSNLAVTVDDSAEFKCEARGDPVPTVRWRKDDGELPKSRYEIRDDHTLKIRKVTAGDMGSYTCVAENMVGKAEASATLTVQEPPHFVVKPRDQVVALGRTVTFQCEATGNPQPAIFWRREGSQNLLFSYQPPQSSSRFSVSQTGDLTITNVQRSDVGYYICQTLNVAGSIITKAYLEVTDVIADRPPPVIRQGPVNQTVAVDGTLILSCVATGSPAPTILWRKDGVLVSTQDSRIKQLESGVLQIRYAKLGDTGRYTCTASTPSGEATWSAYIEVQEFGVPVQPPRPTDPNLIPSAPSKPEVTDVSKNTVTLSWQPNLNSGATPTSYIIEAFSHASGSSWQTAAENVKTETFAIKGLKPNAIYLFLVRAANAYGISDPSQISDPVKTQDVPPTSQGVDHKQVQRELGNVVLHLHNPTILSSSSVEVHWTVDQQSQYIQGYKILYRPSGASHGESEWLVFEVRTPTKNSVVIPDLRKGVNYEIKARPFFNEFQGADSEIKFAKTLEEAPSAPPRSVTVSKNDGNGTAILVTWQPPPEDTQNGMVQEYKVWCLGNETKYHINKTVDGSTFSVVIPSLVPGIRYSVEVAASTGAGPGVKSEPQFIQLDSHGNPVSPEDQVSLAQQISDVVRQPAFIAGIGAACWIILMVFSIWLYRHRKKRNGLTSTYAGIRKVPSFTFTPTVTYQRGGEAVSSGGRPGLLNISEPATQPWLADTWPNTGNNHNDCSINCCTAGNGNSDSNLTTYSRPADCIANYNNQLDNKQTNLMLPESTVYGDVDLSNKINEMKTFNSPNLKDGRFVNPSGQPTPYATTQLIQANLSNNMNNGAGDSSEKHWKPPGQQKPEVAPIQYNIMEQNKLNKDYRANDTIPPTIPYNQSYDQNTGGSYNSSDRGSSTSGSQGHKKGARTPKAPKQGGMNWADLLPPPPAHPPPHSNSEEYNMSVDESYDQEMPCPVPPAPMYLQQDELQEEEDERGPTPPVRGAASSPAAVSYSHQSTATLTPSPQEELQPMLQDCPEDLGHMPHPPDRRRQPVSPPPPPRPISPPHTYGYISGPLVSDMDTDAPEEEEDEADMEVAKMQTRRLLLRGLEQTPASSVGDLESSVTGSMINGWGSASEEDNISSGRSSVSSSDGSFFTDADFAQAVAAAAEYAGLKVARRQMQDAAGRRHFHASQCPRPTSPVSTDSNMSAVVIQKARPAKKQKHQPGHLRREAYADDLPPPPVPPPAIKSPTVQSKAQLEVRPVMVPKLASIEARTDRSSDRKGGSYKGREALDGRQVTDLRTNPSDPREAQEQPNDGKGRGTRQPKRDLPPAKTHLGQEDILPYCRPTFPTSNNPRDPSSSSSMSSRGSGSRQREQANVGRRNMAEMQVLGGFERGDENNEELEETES
# UniProt O89090, whole entry: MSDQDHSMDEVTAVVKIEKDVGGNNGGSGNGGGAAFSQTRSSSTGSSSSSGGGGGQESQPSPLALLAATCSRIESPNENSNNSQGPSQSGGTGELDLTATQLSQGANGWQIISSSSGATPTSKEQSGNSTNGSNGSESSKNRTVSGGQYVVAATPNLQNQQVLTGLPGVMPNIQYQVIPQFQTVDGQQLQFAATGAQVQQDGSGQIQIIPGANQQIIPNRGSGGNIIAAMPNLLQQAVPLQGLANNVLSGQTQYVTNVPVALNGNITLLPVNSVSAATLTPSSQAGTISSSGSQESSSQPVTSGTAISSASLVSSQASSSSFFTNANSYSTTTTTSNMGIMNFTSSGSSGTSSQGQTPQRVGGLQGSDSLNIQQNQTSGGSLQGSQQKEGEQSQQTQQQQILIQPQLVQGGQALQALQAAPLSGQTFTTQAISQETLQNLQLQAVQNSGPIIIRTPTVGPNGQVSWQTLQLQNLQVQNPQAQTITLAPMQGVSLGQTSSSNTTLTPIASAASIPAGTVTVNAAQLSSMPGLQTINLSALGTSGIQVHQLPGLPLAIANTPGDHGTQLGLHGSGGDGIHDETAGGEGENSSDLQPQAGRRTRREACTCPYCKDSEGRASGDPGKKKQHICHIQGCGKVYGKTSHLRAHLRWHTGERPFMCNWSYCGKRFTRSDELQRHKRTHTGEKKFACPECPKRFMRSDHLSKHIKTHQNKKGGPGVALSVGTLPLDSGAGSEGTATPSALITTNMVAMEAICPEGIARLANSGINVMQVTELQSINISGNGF
# UniProt P12787, whole entry: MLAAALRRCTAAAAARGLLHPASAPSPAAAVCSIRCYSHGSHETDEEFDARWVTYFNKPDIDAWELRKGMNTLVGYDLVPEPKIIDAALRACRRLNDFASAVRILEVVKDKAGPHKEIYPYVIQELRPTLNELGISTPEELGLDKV
# UniProt P15105, whole entry: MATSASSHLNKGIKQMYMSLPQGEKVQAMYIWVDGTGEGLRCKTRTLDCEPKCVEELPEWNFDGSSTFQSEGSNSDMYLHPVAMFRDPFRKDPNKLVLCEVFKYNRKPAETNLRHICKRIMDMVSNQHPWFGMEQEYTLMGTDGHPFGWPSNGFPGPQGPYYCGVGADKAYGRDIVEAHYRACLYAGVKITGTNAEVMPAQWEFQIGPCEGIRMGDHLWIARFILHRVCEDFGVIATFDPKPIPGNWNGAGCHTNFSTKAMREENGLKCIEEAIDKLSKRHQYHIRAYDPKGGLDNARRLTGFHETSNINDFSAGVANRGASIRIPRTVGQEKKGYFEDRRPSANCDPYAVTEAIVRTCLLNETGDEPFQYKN
# UniProt P08043: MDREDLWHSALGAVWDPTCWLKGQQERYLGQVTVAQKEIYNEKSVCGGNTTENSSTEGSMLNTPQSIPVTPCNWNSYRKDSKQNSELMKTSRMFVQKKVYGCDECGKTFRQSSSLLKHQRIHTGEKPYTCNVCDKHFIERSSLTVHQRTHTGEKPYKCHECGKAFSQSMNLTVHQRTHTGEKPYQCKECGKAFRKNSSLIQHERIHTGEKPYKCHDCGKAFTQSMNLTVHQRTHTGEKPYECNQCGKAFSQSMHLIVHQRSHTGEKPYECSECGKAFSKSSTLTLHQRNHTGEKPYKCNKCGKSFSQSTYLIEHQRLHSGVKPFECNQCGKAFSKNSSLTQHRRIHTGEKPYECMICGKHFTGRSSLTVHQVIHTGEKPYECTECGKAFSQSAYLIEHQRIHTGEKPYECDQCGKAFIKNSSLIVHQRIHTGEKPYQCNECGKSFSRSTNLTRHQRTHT
# UniProt P03975: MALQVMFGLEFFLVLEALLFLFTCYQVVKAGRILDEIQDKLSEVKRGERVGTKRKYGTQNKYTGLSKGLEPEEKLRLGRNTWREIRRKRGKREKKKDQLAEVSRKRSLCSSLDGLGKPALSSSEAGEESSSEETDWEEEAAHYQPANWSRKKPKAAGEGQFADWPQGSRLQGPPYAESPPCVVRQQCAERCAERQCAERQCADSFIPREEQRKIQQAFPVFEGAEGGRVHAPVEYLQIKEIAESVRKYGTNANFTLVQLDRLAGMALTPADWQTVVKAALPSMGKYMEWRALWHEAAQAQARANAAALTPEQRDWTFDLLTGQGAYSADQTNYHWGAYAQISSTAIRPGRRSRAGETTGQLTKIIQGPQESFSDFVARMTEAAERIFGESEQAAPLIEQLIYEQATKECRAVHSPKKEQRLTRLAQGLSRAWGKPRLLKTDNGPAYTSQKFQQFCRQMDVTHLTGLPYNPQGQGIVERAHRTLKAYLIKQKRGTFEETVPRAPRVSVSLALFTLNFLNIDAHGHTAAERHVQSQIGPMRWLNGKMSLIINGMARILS
# UniProt O89106: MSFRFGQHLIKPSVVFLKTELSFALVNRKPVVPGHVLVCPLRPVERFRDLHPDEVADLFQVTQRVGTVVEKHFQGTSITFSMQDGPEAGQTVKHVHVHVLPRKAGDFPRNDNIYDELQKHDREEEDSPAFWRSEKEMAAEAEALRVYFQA
# UniProt O88947, whole entry: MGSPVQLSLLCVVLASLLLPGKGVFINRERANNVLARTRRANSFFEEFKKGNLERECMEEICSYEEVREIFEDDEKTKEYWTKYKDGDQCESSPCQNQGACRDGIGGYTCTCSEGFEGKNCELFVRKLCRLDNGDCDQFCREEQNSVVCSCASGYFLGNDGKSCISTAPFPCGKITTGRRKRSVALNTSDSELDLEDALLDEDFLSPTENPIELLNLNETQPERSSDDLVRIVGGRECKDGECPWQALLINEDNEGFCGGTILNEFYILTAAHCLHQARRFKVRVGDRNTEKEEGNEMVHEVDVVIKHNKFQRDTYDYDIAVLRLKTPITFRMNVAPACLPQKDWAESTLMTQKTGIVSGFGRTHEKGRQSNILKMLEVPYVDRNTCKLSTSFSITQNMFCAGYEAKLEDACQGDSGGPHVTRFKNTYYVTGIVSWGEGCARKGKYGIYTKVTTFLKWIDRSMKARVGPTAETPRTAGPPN
# UniProt P12023, whole entry: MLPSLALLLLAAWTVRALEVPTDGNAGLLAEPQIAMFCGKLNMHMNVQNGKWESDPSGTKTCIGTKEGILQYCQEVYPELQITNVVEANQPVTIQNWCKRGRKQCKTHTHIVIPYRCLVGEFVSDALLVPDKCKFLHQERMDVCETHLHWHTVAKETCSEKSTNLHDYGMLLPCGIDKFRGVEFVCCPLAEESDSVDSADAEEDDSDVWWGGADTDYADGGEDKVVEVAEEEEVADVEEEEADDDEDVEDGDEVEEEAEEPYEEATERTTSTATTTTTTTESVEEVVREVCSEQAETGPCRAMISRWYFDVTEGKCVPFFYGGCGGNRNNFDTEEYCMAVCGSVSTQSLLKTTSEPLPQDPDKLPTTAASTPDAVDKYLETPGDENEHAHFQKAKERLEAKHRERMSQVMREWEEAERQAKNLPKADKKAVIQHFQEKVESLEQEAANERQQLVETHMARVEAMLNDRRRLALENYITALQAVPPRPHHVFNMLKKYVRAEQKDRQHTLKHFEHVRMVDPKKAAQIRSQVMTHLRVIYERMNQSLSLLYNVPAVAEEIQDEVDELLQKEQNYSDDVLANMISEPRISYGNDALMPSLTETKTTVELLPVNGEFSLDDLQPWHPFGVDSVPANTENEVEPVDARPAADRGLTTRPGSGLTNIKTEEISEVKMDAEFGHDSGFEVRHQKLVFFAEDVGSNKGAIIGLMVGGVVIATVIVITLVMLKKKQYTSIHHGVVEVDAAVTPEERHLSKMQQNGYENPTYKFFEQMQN
# UniProt P09021: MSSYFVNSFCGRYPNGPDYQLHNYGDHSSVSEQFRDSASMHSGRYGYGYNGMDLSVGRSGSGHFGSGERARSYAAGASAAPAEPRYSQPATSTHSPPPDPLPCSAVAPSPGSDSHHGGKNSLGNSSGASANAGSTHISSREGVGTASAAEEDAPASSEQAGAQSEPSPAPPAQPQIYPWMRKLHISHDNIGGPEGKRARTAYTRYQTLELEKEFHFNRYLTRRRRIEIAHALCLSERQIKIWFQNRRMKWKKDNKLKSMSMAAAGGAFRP
# UniProt P11499, whole entry: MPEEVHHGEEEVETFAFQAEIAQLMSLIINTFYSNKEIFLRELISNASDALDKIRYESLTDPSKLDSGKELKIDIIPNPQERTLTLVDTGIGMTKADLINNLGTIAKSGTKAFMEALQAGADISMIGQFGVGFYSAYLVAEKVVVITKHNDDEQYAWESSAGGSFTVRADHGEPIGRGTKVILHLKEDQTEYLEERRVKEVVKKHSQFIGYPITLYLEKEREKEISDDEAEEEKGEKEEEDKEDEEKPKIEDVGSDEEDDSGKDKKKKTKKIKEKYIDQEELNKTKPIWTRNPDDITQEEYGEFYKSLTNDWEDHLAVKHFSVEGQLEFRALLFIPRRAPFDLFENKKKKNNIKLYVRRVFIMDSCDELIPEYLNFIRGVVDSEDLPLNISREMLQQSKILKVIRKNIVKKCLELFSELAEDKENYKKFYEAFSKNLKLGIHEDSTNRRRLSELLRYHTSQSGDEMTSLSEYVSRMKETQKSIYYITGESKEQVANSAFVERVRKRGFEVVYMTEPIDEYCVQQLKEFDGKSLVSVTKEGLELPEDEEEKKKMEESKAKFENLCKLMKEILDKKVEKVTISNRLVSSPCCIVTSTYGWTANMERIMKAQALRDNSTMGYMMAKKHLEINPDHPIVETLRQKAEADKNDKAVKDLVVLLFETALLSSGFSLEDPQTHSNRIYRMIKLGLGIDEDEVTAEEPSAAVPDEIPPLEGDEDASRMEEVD
# The other results are listed elsewhere or left out. Small differences around the control level are noise.
# Compound: CN[C@@H]1C[C@H]2O[C@@](C)([C@@H]1OC)n1c3ccccc3c3c4c(c5c6ccccc6n2c5c31)C(=O)NC4 [staurosporine]
# Assay: log2 fold change of tryptic peptide abundance, ligand vs vehicle (limited proteolysis) (log2 ratio); higher = more trypsin-susceptible (destabilized)
# Details: ligand concentration: 20 uM; sample: mouse liver crude lysate; replicate design: treated separately
row,Target,log2 fold change
1,"UniProt P13595 (peptide sequence: TLDGHMVVR, peptide start residue: 355)",0.406
2,"UniProt P14094 (peptide sequence: AKEEGSWK, peptide start residue: 6)",0.383
3,"UniProt P01872 (peptide sequence: YLATSQVLLSPK, peptide start residue: 65)",-0.108
4,"UniProt P10493 (peptide sequence: SFQLPAER, peptide start residue: 350)",-0.124
5,"UniProt P06795 (peptide sequence: STVVQLLER, peptide start residue: 1073)",-0.969
6,"UniProt O89051 (peptide sequence: YQTIEENIK, peptide start residue: 112)",-0.0635
7,"UniProt P14115 (peptide sequence: INFDKYHPGYFGKVGMR, peptide start residue: 43)",-0.553
8,"UniProt P10852 (peptide sequence: VAEDETEAGVK, peptide start residue: 43)",-0.215
9,"UniProt P07309 (peptide sequence: TAESGELHGLTTDEKFVEGVYR, peptide start residue: 69)",-0.235
10,"UniProt O89026 (peptide sequence: AQLEVRPVMVPK, peptide start residue: 1460)",-0.317
11,"UniProt O89090 (peptide sequence: KFACPECPKR, peptide start residue: 686)",0.383
12,"UniProt P10637 (peptide sequence: IGSLDNITHVPGGGNK, peptide start residue: 646)",-0.334
13,"UniProt P12787 (peptide sequence: LNDFASAVR, peptide start residue: 95)",-0.227
14,"UniProt P15307 (peptide sequence: LLQDCGHFTEKPR, peptide start residue: 303)",-0.119
15,"UniProt P0CG14 (peptide sequence: LGGLPGPGPMANPR, peptide start residue: 139)",0.109
16,"UniProt P15105 (peptide sequence: CIEEAIDKLSK, peptide start residue: 269)",0.104

# Fetched one by one from above:
row,Target,log2 fold change
14,"UniProt P15307 (peptide sequence: LLQDCGHFTEKPR, peptide start residue: 303)",-0.119
3,"UniProt P01872 (peptide sequence: YLATSQVLLSPK, peptide start residue: 65)",-0.108

# The list goes on.

row,Target,log2 fold change
1,"UniProt P08043 (peptide sequence: THTGEKPYECNQCGK, peptide start residue: 233)",0.144
2,"UniProt P03975 (peptide sequence: QCADSFIPR, peptide start residue: 200)",0.375
3,"UniProt P10605 (peptide sequence: HFGYTSYSVSNSVK, peptide start residue: 224)",-0.151
4,"UniProt P0C8B4 (peptide sequence: TNSDGPSAK, peptide start residue: 84)",-0.0621
5,"UniProt P0C090 (peptide sequence: KGHETPQPQPNSK, peptide start residue: 398)",-0.778
6,"UniProt O89106 (peptide sequence: SEKEMAAEAEALR, peptide start residue: 133)",-0.389
7,"UniProt O88947 (peptide sequence: MLEVPYVDRNTCK, peptide start residue: 376)",-0.661
8,"UniProt P12023 (peptide sequence: QQLVETHMAR, peptide start residue: 451)",0.269
9,"UniProt P09021 (peptide sequence: SYAAGASAAPAEPR, peptide start residue: 72)",0.491
10,"UniProt P09803 (peptide sequence: NDVAPTLMSVPQYRPR, peptide start residue: 787)",-0.223
11,"UniProt O88935 (peptide sequence: QAGAPQATR, peptide start residue: 557)",0.321
12,"UniProt O88904 (peptide sequence: GNSGTLLEGPGRPAADGIGTR, peptide start residue: 963)",0.331
13,"UniProt P14847 (peptide sequence: QYTFGVGGAEVR, peptide start residue: 91)",-0.316
14,"UniProt P13745 (peptide sequence: FLQPGSQR, peptide start residue: 197)",0.117
15,"UniProt P11499 (peptide sequence: YESLTDPSKLDSGKELK, peptide start residue: 56)",-0.561
